Our source for the binding values is article doi:10.1101/199034 (bioRxiv, 2017).

By UniProt entry, the sequences of proteins in these tests, tags left out. Where a name states a change or a piece, a line headed by the entry shows the natural chain unless it says otherwise.
UniProt Q14654: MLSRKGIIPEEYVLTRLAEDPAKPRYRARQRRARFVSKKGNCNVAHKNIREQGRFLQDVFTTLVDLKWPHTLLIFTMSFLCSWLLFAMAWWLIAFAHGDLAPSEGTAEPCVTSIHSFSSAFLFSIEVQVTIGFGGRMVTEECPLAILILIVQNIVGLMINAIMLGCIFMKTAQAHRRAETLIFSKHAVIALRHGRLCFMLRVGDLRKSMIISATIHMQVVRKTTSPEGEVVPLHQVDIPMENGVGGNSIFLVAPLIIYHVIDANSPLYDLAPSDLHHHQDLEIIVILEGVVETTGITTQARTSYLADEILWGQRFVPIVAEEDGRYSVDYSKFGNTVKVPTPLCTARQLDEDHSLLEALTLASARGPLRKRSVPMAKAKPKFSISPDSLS
UniProt Q09428: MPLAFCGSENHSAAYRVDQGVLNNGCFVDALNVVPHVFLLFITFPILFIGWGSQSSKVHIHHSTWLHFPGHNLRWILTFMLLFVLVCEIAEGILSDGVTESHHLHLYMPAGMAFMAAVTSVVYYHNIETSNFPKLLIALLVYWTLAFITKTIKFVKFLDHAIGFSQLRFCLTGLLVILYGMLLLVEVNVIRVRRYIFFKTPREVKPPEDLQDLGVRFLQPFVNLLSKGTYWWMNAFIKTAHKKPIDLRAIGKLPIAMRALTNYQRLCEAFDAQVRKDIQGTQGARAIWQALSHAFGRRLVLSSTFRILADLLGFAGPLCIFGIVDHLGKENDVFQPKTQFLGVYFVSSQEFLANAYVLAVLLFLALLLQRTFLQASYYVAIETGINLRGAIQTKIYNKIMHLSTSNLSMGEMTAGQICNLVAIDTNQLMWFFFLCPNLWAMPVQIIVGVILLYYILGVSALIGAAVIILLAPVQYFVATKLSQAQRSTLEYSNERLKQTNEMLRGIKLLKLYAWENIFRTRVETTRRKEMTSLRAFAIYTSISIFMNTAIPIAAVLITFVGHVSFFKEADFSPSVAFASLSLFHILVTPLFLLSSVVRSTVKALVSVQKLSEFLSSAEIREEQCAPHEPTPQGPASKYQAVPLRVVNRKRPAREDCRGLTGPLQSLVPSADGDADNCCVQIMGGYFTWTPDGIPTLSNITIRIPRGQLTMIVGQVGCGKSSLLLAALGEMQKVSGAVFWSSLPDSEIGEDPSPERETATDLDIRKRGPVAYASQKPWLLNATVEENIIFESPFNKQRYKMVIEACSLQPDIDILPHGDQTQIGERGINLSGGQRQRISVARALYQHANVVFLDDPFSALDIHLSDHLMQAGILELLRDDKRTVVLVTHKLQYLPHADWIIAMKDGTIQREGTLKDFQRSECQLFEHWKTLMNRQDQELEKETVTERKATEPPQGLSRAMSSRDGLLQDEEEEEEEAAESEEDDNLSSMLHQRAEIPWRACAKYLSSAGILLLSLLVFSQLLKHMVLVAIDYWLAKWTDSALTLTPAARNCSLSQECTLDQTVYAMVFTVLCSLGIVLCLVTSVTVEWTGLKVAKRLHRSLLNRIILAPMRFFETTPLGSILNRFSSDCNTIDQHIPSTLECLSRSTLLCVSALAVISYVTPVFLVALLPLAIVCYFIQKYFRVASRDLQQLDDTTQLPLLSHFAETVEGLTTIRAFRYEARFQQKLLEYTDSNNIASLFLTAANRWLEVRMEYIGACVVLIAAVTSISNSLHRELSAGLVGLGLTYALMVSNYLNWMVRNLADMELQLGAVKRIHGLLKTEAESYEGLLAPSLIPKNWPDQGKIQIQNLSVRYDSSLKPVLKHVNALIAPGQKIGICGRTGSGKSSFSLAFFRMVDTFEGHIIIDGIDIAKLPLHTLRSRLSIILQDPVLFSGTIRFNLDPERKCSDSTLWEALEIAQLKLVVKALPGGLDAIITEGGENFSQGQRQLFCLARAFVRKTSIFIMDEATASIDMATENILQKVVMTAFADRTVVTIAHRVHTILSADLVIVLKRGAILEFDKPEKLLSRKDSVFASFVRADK

These are yes or no findings as the source states them, for the method shown. A result given as binding can be weak or reduced; the word gives no strength.

In this assay the target is human Kir6.2 (human) (UniProt Q14654). Description: cryo-EM structure.

With “human SUR1 (sulphonylurea receptor 1) (from UniProt Q09428)”, the binding entry is given as “binds”.
